Assay results published in paper PMC9444074.

Target: T1, GFP-tagged TAOK1 (human) (UniProt Q7L7X3)
T1 sequence: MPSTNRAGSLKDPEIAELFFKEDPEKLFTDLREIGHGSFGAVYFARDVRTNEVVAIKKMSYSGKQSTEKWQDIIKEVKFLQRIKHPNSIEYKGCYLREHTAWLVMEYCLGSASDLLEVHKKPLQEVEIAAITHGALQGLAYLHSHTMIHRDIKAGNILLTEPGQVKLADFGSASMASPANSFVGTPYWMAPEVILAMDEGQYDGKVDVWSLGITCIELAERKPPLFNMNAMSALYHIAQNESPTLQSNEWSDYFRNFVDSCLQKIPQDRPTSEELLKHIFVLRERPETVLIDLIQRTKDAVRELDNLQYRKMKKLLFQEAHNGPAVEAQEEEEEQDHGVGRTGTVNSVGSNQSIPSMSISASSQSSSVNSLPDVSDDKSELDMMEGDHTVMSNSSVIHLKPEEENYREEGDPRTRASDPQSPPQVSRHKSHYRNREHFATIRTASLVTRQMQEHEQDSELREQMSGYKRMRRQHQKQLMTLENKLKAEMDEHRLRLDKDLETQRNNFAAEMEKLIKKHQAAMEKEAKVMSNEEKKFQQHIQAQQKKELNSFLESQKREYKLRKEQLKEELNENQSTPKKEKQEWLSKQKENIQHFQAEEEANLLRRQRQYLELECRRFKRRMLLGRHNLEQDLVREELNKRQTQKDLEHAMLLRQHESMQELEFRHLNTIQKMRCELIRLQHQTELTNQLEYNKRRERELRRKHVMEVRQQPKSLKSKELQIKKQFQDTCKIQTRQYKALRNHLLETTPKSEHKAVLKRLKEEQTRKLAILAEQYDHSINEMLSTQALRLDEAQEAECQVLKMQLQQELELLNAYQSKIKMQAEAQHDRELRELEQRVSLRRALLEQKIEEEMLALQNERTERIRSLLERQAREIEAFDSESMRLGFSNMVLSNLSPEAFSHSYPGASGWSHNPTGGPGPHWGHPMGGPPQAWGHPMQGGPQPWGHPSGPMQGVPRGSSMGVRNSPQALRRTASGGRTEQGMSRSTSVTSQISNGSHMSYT
Experiment: co-IP; GFP-tagged kinase immunoprecipitated with GFP-Trap beads from lysates of transfected HEK293 cells (serum-starved, serum, calyculin A or PMA, with or without kinase inhibitors); washed in 0.15 M and 0.5 M NaCl buffers; endogenous 14-3-3s detected with the pan-14-3-3 antibody K19

binding: binds
Substance: endogenous 14-3-3s (human (endogenous in HEK293))

Results are given in words; binding and its absence hold for the method and conditions named. In cells and extracts the contact can be indirect. Binding can be weak; no strength is given. Sequences can lack the tags named with a protein.
